Test results as given in the supplement of paper PMC10849652.
The other results are listed elsewhere or left out.

The chains behind the UniProt entries cited, without tags or fusion partners. Where a name states a change or a piece, a line headed by the entry shows the natural chain unless it says otherwise.
UniProt P62070: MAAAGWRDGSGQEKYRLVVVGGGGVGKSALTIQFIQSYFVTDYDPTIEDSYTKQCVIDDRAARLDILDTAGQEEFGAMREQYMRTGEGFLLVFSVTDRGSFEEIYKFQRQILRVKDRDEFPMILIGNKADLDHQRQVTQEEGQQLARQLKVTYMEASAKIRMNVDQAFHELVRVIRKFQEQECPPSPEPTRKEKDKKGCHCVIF
UniProt P21817: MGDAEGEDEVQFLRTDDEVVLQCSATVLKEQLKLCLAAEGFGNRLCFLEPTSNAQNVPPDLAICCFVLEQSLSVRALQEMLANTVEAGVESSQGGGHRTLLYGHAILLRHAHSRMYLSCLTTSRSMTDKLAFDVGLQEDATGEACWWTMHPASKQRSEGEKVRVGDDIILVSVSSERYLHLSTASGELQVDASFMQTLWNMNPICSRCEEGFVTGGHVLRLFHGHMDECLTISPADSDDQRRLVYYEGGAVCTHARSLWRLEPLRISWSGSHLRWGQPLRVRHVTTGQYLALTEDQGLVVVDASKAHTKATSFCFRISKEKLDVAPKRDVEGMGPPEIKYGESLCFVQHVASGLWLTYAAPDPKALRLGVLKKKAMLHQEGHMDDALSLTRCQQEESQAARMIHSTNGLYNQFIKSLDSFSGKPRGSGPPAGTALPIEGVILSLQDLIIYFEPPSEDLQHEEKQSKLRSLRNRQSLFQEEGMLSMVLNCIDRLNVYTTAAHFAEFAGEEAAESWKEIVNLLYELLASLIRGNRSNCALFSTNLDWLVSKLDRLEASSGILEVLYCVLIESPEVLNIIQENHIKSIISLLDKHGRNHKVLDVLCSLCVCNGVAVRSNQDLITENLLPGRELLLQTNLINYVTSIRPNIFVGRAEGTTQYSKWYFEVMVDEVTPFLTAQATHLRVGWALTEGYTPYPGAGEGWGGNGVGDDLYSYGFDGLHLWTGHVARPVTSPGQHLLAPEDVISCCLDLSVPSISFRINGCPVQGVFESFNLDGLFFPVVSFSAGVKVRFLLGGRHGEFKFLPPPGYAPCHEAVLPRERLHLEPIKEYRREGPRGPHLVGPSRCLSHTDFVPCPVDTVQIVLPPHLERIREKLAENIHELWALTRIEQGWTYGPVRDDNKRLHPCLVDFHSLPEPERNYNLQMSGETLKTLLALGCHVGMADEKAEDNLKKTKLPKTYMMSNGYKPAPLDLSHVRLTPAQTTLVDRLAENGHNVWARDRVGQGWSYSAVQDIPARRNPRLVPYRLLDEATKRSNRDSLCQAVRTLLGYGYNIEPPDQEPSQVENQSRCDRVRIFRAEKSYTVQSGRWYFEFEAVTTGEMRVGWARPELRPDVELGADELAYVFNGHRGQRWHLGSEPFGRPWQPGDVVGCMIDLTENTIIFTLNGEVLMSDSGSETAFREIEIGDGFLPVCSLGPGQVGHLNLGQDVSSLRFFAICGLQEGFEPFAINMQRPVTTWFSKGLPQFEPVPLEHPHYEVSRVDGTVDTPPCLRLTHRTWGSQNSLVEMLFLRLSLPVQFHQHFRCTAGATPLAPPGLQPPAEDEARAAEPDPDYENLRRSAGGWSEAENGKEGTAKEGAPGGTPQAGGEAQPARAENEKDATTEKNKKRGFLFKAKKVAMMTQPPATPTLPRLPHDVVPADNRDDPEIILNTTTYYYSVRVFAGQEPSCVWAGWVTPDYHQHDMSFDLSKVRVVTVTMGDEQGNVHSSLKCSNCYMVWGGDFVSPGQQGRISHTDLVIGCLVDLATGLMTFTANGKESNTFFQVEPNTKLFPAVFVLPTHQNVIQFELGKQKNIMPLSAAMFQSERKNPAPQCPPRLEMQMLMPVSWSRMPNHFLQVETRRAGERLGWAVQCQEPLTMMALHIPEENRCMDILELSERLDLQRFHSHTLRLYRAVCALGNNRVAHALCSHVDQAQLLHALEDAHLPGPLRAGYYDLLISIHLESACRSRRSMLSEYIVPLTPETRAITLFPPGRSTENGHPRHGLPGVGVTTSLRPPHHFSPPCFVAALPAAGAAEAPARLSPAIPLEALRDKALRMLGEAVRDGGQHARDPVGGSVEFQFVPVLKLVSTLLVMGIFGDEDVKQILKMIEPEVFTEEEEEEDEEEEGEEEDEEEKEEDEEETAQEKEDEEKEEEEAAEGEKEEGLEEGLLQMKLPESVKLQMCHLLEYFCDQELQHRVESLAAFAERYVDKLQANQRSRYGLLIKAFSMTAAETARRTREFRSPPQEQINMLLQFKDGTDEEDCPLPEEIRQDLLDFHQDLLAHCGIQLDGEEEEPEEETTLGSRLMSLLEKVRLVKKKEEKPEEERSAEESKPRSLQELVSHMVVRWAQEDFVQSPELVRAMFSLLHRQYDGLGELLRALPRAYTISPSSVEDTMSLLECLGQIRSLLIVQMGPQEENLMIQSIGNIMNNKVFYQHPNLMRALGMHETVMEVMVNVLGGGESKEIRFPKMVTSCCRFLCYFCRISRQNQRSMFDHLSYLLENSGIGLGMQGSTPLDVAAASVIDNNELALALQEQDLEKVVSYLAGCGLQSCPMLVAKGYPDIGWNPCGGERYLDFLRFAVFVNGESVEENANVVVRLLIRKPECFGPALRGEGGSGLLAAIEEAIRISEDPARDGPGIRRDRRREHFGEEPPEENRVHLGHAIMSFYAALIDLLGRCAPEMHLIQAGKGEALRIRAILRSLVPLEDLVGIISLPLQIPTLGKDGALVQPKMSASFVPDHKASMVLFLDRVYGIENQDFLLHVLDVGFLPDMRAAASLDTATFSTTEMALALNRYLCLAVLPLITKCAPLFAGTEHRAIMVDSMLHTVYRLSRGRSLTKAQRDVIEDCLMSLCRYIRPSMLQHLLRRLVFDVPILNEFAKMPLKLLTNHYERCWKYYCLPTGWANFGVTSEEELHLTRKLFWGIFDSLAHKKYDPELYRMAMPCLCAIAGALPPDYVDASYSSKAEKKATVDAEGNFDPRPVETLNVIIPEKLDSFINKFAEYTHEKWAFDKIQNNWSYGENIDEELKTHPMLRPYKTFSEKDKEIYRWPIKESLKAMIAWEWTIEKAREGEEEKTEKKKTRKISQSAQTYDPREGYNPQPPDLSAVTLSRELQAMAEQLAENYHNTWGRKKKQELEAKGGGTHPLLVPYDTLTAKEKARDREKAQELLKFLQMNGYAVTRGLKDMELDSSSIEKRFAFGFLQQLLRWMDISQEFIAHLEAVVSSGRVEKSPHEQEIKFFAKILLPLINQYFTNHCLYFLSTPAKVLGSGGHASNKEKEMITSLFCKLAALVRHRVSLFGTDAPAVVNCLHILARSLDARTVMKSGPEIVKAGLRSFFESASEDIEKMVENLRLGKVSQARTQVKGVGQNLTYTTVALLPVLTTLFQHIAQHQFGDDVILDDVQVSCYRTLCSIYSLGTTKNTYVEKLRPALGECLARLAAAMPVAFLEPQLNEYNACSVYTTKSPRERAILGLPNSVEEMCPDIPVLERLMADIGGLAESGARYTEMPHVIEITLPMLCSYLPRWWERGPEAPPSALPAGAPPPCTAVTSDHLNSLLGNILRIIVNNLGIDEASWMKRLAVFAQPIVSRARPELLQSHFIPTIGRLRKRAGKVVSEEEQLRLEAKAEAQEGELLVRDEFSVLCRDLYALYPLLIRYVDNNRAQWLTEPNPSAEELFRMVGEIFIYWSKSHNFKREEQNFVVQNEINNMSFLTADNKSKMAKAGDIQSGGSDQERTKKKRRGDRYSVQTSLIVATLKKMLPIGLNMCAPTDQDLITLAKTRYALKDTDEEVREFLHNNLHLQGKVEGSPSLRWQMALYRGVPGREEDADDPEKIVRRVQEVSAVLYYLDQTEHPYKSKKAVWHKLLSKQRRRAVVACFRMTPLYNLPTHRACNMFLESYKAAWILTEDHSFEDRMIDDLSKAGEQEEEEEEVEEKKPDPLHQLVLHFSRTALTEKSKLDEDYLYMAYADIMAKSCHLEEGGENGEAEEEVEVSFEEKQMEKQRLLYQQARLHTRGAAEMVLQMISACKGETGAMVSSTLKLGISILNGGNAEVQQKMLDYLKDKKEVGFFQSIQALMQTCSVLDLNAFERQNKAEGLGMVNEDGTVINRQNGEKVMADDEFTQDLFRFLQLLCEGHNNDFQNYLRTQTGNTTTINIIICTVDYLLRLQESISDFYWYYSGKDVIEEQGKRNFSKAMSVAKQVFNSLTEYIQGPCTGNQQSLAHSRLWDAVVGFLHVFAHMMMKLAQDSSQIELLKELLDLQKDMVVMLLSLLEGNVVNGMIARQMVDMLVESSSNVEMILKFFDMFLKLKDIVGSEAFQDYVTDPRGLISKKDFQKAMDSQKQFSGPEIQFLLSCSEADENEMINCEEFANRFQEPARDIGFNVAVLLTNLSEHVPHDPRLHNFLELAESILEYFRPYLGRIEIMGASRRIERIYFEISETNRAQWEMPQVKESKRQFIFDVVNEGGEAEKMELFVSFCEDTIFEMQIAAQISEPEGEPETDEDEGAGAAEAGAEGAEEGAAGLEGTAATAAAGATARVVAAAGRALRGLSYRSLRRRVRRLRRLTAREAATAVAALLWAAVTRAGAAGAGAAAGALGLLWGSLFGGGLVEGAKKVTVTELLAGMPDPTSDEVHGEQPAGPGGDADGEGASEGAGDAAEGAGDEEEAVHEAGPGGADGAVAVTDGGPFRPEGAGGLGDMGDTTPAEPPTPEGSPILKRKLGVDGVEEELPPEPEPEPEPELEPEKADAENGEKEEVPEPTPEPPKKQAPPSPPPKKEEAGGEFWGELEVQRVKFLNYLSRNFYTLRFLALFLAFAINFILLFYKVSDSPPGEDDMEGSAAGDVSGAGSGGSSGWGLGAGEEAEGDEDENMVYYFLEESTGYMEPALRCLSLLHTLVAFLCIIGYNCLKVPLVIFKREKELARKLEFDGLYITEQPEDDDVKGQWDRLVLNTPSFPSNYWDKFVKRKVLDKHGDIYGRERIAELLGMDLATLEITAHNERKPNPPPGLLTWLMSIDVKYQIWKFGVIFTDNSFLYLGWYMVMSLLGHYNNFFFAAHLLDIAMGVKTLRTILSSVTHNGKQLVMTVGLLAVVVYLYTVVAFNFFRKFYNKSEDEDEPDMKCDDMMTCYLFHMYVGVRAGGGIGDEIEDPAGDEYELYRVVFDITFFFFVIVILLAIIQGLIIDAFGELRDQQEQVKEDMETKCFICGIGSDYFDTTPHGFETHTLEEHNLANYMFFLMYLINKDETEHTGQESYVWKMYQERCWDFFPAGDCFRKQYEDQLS
UniProt Q5JTH9: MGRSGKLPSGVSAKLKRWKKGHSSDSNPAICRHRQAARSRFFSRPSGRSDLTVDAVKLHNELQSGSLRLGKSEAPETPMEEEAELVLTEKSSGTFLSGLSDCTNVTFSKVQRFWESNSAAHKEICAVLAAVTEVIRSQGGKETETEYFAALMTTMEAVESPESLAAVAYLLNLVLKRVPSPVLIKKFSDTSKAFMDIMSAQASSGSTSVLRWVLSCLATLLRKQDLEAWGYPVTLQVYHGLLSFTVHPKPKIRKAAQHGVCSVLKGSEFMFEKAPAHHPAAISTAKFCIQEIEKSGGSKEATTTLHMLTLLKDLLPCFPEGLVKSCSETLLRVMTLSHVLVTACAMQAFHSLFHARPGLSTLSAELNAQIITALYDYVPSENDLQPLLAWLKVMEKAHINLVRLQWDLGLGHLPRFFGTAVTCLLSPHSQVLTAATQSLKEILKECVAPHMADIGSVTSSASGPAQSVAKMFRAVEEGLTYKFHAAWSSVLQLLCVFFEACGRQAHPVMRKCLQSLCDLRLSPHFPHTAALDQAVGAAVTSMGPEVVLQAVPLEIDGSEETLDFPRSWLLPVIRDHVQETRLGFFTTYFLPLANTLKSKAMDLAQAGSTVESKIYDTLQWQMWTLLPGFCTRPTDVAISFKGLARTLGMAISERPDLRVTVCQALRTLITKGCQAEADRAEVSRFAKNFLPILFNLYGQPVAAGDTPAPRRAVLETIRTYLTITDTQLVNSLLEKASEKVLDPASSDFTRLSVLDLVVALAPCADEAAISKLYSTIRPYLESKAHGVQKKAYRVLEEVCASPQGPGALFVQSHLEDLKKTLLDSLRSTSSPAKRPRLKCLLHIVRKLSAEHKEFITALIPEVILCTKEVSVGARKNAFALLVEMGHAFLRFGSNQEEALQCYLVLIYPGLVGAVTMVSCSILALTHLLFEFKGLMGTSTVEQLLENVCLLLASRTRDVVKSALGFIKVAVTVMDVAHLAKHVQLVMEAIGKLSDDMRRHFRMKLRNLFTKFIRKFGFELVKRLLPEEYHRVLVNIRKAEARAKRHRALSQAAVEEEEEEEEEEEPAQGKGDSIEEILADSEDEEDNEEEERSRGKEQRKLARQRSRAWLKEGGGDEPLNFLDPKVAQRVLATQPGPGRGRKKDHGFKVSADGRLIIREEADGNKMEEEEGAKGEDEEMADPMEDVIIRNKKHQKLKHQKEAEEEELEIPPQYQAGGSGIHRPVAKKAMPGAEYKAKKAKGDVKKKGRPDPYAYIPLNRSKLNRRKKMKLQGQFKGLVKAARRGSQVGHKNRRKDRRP

Key:
Experiment in all cases: log2 fold change, soluble protein after heating vs DMSO (PISA); higher = thermal stabilisation; K562 lysate, 10 uM; active = over 0.2 and 3.5 SD of the protein, either way, in both replicates (recomputed)
[1] = compound: CN1CC[C@H](c2c(O)cc(O)c3c(=O)cc(-c4ccccc4Cl)oc23)[C@H](O)C1 [alvocidib]
How it was run: (§1)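 Dounce homogenisation of K562 pellets in PBS pH 7.4 with 1 mM MgCl2 produced a crude extract, used at 1 mg/mL protein. Exposure to 10 μM compound lasted 30 min, and aliquots were then heated for 3 min across 48°C-58°C, pooled and brought to 0.5% NP-40 at 4°C. The supernatant after 21,000xg for 90 min was quantified by TMTpro 16plex LC-MS/MS with channel sums equalised. Duplicate values are given as log-two fold change in thermal stability relative to solvent controls.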

[2] = compound: CN1CCc2c(c3ccccc3n2Cc2ccc(C(=O)NO)cc2)C1 [Tubastatin A]
How it was run: as §1

[3] = compound: CNC(=O)C1=CC=CC=C1NC2=NC(=NC=C2Cl)NC3=C(C=C(C=C3)N4CCOCC4)OC
How it was run: as §1

[4] = compound: CNC(=O)c1ccc(Nc2ncc(C(F)(F)F)c(NCc3nccnc3N(C)S(C)(=O)=O)n2)cc1 [defactinib]
How it was run: as §1

[5] = compound: CNc1nc(-c2ccc3c(N)n[nH]c3c2)cc(N2C[C@@H](C(=O)NC3CCCCC3)CC[C@H]2C)n1
How it was run: as §1

[6] = compound: COC(=O)N[C@@H](C)CNc1nccc(-c2cn(C(C)C)nc2-c2cc(Cl)cc(NS(C)(=O)=O)c2F)n1 [encorafenib]
How it was run: as §1

[7] = compound: COC(=O)[C@H](CCSC)NC(=O)C1=C(C=C(C=C1)NC[C@H](CS)N)C2=CC=CC=C2
How it was run: as §1

[8] = compound: COc1cc(Nc2ncc3c(n2)-c2ccc(Cl)cc2C(c2c(F)cccc2OC)=NC3)ccc1C(=O)O [alisertib]
How it was run: as §1

[9] = compound: COc1cc2nc(-c3cc(F)ccc3O)nc(N[C@@H]3CNC[C@H]3C(C)(C)O)c2cc1OC
How it was run: as §1

[10] = compound: COc1cc2ncnc(Nc3ccc(F)c(Cl)c3)c2cc1OCCCN1CCOCC1 [gefitinib]
How it was run: as §1

[11] = compound: CS(=O)(=O)CCNCc1ccc(-c2ccc3ncnc(Nc4ccc(OCc5cccc(F)c5)c(Cl)c4)c3c2)o1 [lapatinib]
How it was run: as §1

[12] = compound: CS(=O)(=O)N1CCN(Cc2cc3nc(-c4cccc5[nH]ncc45)nc(N4CCOCC4)c3s2)CC1 [pictilisib]
How it was run: as §1

[13] = compound: C[C@@H](Oc1cc(-c2cnn(C3CCNCC3)c2)cnc1N)c1c(Cl)ccc(F)c1Cl [crizotinib]
How it was run: as §1

[14] = compound: C[C@H](C1=CC=C(C=C1)C(=O)NC2=C3C=CNC3=NC=C2)N
How it was run: as §1

[15] = compound: C[C@H](Nc1ncnc2nc[nH]c12)c1cc2cccc(Cl)c2c(=O)n1-c1ccccc1 [duvelisib]
How it was run: as §1

[16] = compound: Cc1cc(Nc2cc(CN3CCOCC3)c3nc(C)c(Cc4ccc(Cl)cc4F)n3n2)n[nH]1 [gandotinib]
How it was run: as §1

[17] = compound: Cc1cc(Nc2cc(N3CCN(C)CC3)nc(Sc3ccc(NC(=O)C4CC4)cc3)n2)n[nH]1 [tozasertib]
How it was run: as §1

[18] = compound: Cc1ccc(-n2nc(C(C)(C)C)cc2NC(=O)Nc2ccc(OCCN3CCOCC3)c3ccccc23)cc1 [doramapimod]
How it was run: as §1

[19] = compound: Cc1ccc(NC(=O)c2ccc(CN3CC[C@H](N(C)C)C3)c(C(F)(F)F)c2)cc1Nc1nccc(-c2cncnc2)n1 [bafetinib]
How it was run: as §1

[20] = compound: Cc1cccc(CC(=O)N2CCc3c2ccc(-c2cn(C)c4ncnc(N)c24)c3F)n1
How it was run: as §1

Measured: log2 fold change

RRAS2 (UniProt P62070)
inactive: [1] -0.004 | [2] 0.046 | [3] -0.003 | [4] -0.003 | [5] 0.021 | [6] 0.032 | [7] -0.058 | [8] -0.044 | [9] 0.036 | [10] 0.107 | [11] -0.076 | [12] -0.014 | [13] 0.029 | [14] 0.067 | [15] 0.039 | [16] 0.05 | [17] -0.012 | [18] 0.025 | [19] -0.045 | [20] -0.021

RPS21 (UniProt P63220)
inactive: [1] 0.002 | [2] 0.05 | [3] -0.01 | [4] -0.007 | [5] 0.014 | [6] -0.018 | [7] -0.047 | [8] 0.018 | [9] 0 | [10] 0.008 | [11] -0.027 | [12] 0.031 | [13] 0.006 | [14] 0.003 | [15] -0.037 | [16] -0.007 | [17] 0.018 | [18] 0.029 | [19] -0.02 | [20] 0.014

RPS4X (UniProt P62701)
inactive: [1] 0.039 | [2] 0.032 | [3] -0.03 | [4] -0.027 | [5] 0.029 | [6] -0.036 | [7] 0.063 | [8] 0.004 | [9] 0.002 | [10] -0.028 | [11] -0.006 | [12] 0.009 | [13] -0.024 | [14] 0.209 | [15] 0.012 | [16] -0.038 | [17] -0.018 | [18] -0.01 | [19] -0.008 | [20] -0.04

S100A13 (UniProt Q99584)
inactive: [1] 0.006 | [2] 0.055 | [3] -0.039 | [4] -0.006 | [5] -0.05 | [6] -0.025 | [7] 0.008 | [8] -0.001 | [9] 0.018 | [10] -0.014 | [11] -0.013 | [12] 0 | [13] 0.068 | [14] 0.019 | [15] -0.002 | [16] 0.014 | [17] 0.006 | [18] -0.015 | [19] -0.02 | [20] 0.011

RRP7A (UniProt Q9Y3A4)
inactive: [1] -0.009 | [2] -0.021 | [3] 0.053 | [4] -0.025 | [5] -0.139 | [6] -0.006 | [7] -0.07 | [9] 0.02 | [11] -0.104 | [12] -0.058 | [13] -0.015 | [14] 0.001 | [15] 0.077 | [16] 0.067 | [17] -0.066 | [18] -0.052 | [19] 0.032 | [20] 0.046

RTTN (UniProt Q86VV8)
inactive: [1] 0.088 | [2] -0.242 | [3] 0.082 | [4] 0.401 | [5] 0.018 | [6] 0.069 | [7] -0.085 | [8] -0.002 | [9] -0.301 | [10] 0.049 | [11] 0.306 | [12] -0.034 | [14] -0.053 | [15] 0.067 | [16] -0.289 | [17] -0.07 | [19] -0.032 | [20] 0.203

RYR1 (UniProt P21817)
inactive: [1] 0.015 | [2] 0.097 | [3] 0.064 | [5] 0.16 | [6] -0.024 | [7] -0.087 | [9] 0.02 | [11] 0.028 | [12] -0.048 | [13] -0.229 | [14] -0.017 | [15] -0.032 | [16] -0.027 | [17] 0.04 | [18] 0.112 | [19] -0.13 | [20] 0.016

RWDD2A (UniProt Q9UIY3)
inactive: [1] 0.017 | [2] 0.05 | [3] -0.144 | [4] -0.031 | [5] 0.034 | [6] -0.007 | [7] 0.018 | [12] 0.134 | [13] -0.029 | [14] -0.09 | [15] -0.004 | [16] -0.078 | [17] -0.029 | [18] 0.027 | [19] -0.034 | [20] 0.017

RRP12 (UniProt Q5JTH9)
inactive: [1] -0.01 | [2] -0.01 | [3] -0.035 | [4] 0.013 | [5] -0.015 | [6] 0.005 | [7] 0.08 | [8] 0.023 | [9] 0.026 | [10] 0.07 | [11] -0.021 | [12] -0.011 | [13] -0.061 | [14] 0.018 | [15] 0.023 | [16] -0.077 | [17] 0.003 | [18] -0.004 | [19] -0.071 | [20] 0.032

RREB1 isoform 2 (UniProt Q92766)
inactive: [1] 0 | [2] -0.017 | [3] 0.067 | [4] 0.152 | [5] 0.135 | [6] -0.056 | [7] 0.114 | [8] 0.248 | [9] -0.077 | [10] -0.241 | [11] 0.184 | [12] -0.041 | [13] 0.02 | [14] 0.05 | [15] -0.142 | [16] -0.177 | [17] 0.03 | [18] 0.027 | [19] 0.068 | [20] -0.023

RXRA (UniProt P19793)
inactive: [1] -0.019 | [2] 0.138 | [3] -0.06 | [5] 0.072 | [8] -0.117 | [9] 0.018 | [10] 0.043 | [11] -0.045 | [13] -0.062 | [14] -0.041 | [15] 0 | [16] -0.047 | [18] 0.019 | [20] 0.126

RSL24D1 (UniProt Q9UHA3)
inactive: [1] 0.041 | [2] -0.01 | [3] 0.145 | [5] 0.044 | [6] -0.147 | [7] 0.029 | [8] -0.047 | [9] 0 | [10] 0.012 | [11] -0.059 | [13] 0.168 | [14] 0.132 | [15] 0.009 | [16] -0.028 | [17] -0.027 | [18] -0.098 | [20] 0.023

S100A4 (UniProt P26447)
inactive: [1] 0.018 | [2] -0.002 | [3] -0.029 | [4] 0.101 | [5] -0.128 | [6] 0.095 | [7] 0.288 | [8] 0.13 | [9] -0.032 | [10] 0.043 | [11] -0.037 | [13] 0.055 | [14] 0.157 | [15] -0.131 | [16] -0.005 | [17] -0.004 | [18] 0.464 | [20] -0.043

RTN4IP1 (UniProt Q8WWV3)
inactive: [1] 0.042 | [2] -0.079 | [3] 0.036 | [4] -0.014 | [5] 0 | [6] -0.021 | [7] 0.003 | [8] -0.111 | [9] 0.019 | [10] 0.196 | [11] -0.02 | [12] 0.017 | [13] -0.021 | [14] 0.056 | [15] 0.072 | [16] -0.057 | [17] 0.009 | [18] -0.016 | [19] 0.059 | [20] -0.048

4 successive entries already listed:
S100A13 (UniProt Q99584)
inactive: [1] 0.006 | [2] 0.055 | [3] -0.039 | [4] -0.006 | [5] -0.05 | [6] -0.025 | [7] 0.008 | [8] -0.001 | [9] 0.018 | [10] -0.014 | [11] -0.013 | [12] 0 | [13] 0.068 | [14] 0.019 | [15] -0.002 | [16] 0.014 | [17] 0.006 | [18] -0.015 | [19] -0.02 | [20] 0.011

RRP7A (UniProt Q9Y3A4)
inactive: [1] -0.009 | [2] -0.021 | [3] 0.053 | [4] -0.025 | [5] -0.139 | [6] -0.006 | [7] -0.07 | [9] 0.02 | [11] -0.104 | [12] -0.058 | [13] -0.015 | [14] 0.001 | [15] 0.077 | [16] 0.067 | [17] -0.066 | [18] -0.052 | [19] 0.032 | [20] 0.046

RTTN (UniProt Q86VV8)
inactive: [1] 0.088 | [2] -0.242 | [3] 0.082 | [4] 0.401 | [5] 0.018 | [6] 0.069 | [7] -0.085 | [8] -0.002 | [9] -0.301 | [10] 0.049 | [11] 0.306 | [12] -0.034 | [14] -0.053 | [15] 0.067 | [16] -0.289 | [17] -0.07 | [19] -0.032 | [20] 0.203

RYR1 (UniProt P21817)
inactive: [1] 0.015 | [2] 0.097 | [3] 0.064 | [5] 0.16 | [6] -0.024 | [7] -0.087 | [9] 0.02 | [11] 0.028 | [12] -0.048 | [13] -0.229 | [14] -0.017 | [15] -0.032 | [16] -0.027 | [17] 0.04 | [18] 0.112 | [19] -0.13 | [20] 0.016

(continued)

RSF1 (UniProt Q96T23)
inactive: [1] 0.047 | [2] -0.062 | [3] -0.209 | [4] 0.095 | [5] -0.072 | [6] 0.029 | [7] -0.074 | [9] -0.024 | [11] 0.016 | [12] -0.029 | [13] -0.014 | [14] 0.067 | [15] -0.021 | [16] -0.062 | [17] 0.013 | [18] 0.018 | [19] 0.023 | [20] -0.024

RUVBL1 (UniProt Q9Y265)
inactive: [1] 0.012 | [2] 0.033 | [3] -0.014 | [4] -0.011 | [5] 0.011 | [6] -0.018 | [7] -0.017 | [8] 0 | [9] 0.002 | [10] -0.01 | [11] -0.024 | [12] -0.004 | [13] 0.036 | [14] -0.01 | [15] 0.002 | [16] 0.016 | [17] -0.014 | [18] -0.038 | [19] 0.049 | [20] -0.012
